{"source": "PubChem BioAssay AID1159584, Peter MacCallum Cancer Centre, 2016", "aim": "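Genes whose loss is lethal only together with E-cadherin loss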 (primary screen)", "system": "human MCF10A breast epithelial cells, parental and CDH1-null", "knock-down reagent": "siRNA against human genes", "measurement": "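ATP luminescence (CellTiter-Glo) viability per line relative to mean mock wells over all plates, and the ratio of CDH1-null to parental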", "reading the numbers": "CDH1-null / parental viability ratio: higher = CDH1-null cells survive relatively better than parental", "note": "The whole screen tested about 18,000 reagents; below is a random part of them. Not all columns of the deposit are shown. Not given: the amount of reagent, the time to read-out."}
{"gene":"C1orf226 (GeneID 400793)","CDH1-null / parental viability ratio":0.88}
{"gene":"ANAPC5 (GeneID 51433)","CDH1-null / parental viability ratio":1.01}
{"gene":"POLE4 (GeneID 56655)","CDH1-null / parental viability ratio":0.72}
{"gene":"PRR30 (GeneID 339779)","CDH1-null / parental viability ratio":0.9}
{"gene":"CEACAM18 (GeneID 729767)","CDH1-null / parental viability ratio":1.12}
{"gene":"DPM2 (GeneID 8818)","CDH1-null / parental viability ratio":0.99}
{"gene":"TMEM205 (GeneID 374882)","CDH1-null / parental viability ratio":0.91}
{"gene":"GATC (GeneID 283459)","CDH1-null / parental viability ratio":0.75}
{"gene":"ADH1B (GeneID 125)","CDH1-null / parental viability ratio":1.02}
{"gene":"RBP7 (GeneID 116362)","CDH1-null / parental viability ratio":0.9}
{"gene":"GNB4 (GeneID 59345)","CDH1-null / parental viability ratio":0.88}
{"gene":"ZNF391 (GeneID 346157)","CDH1-null / parental viability ratio":0.92}
{"gene":"LAMTOR1 (GeneID 55004)","CDH1-null / parental viability ratio":0.86}
{"gene":"LRTM2 (GeneID 654429)","CDH1-null / parental viability ratio":1.15}
{"gene":"WWC1 (GeneID 23286)","CDH1-null / parental viability ratio":0.96}
{"gene":"C8G (GeneID 733)","CDH1-null / parental viability ratio":1}
{"gene":"SPC24 (GeneID 147841)","CDH1-null / parental viability ratio":0.97}
{"gene":"MCHR2 (GeneID 84539)","CDH1-null / parental viability ratio":0.69}
{"gene":"TMEM257 (retired record) (GeneID 9142)","CDH1-null / parental viability ratio":0.97}
{"gene":"PCDH8 (GeneID 5100)","CDH1-null / parental viability ratio":0.82}
{"gene":"ZNF599 (GeneID 148103)","CDH1-null / parental viability ratio":0.69}
{"gene":"ABHD14A (GeneID 25864)","CDH1-null / parental viability ratio":0.97}
{"gene":"ABCB5 (GeneID 340273)","CDH1-null / parental viability ratio":1.06}
{"gene":"PDZRN4 (GeneID 29951)","CDH1-null / parental viability ratio":0.94}

Look-ups from the list.
Entry for LRTM2 (GeneID 654429) under “CDH1-null / parental viability ratio”: 1.15
Value for TMEM205 (GeneID 374882) under “CDH1-null / parental viability ratio”: 0.91
For “CDH1-null / parental viability ratio”, PCDH8 (GeneID 5100) reads 0.82
TMEM257 (retired record) (GeneID 9142), CDH1-null / parental viability ratio = 0.97
